Part of at least one peptide drawing is inferred or uncertain, most often the ends.
What was measured:
Mas receptor (MasR) = target: T1, Mas receptor (MasR) (Homo sapiens, UniProt P04201); settings: cited from earlier work
T1 sequence (P04201 1-325): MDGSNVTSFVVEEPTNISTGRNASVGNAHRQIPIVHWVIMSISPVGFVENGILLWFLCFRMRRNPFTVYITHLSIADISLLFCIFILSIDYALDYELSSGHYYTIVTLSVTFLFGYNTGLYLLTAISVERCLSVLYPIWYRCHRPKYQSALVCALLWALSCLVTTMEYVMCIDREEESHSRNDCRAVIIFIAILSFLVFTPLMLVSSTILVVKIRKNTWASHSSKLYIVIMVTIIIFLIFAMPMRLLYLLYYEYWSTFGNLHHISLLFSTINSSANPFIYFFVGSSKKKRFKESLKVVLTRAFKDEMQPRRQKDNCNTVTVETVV

[1] = system: TBI mice (TBI-induced cognitive impairment); test: Novel object recognition after closed head traumatic brain injury; type: in vivo, mouse; settings: 1 mg/kg i.p. 30 minutes prior to NOR task, discrimination ratio time course
[2] = system: human umbilical vascular endothelial cells (HUVEC); test: NO production assay (DAF-FM fluorescence, microplate reader); type: cell-based; settings: 5 minutes exposure, normalized to control fluorescence
Text: To isolate primary hippocampal CA1 neuronal cells, whole brain was removed from neonatal rat pups (1-2 day old) and the cortices dissected away. The hippocampus was isolated and the CA1 field was excised and placed in buffer. After gentle disruption in digestion buffer, the cells were counted, placed in culture media, and plated in a 96-well format coated with poly-d-lysine. At the time of plating, cells were approximately at 50% density and were allowed to culture to 70-80% density before starting the assay. Commercially available HUVEC (Life Technologies/Thermo Fisher) was thawed and plated (5000-10,000 cells/well) in a 96-well format coated with gelatin. […]
As a screen for mechanisms of action of oligopeptides of the invention, the ability to increase NO production of three oligopeptides of the invention (PN-A3, PN-A4 and PN-A5) were characterized and compared to native Ang-(1-7). Human umbilical vascular endothelial cells (HUVEC) culture plates received fluorescence reaction buffer (0.2 M phosphate buffer, pH 7, 1 mM EDTA, 0.1% glucose) containing diaminofluorescein-FM diacetate (DAF-FM, 1 μM) to measure real-time NO production. Time-resolved (10 minutes) fluorescent intensity was detected using a BioTek Synergy 2 microplate reader with excitation at 485 nm and emission at 535 nm. […]
Values were normalized to control fluorescence.

For `CC[C@H](C)[C@H](NC(=O)[C@H](Cc1ccc(O)cc1)NC(=O)[C@@H](NC(=O)[C@H](CCCNC(=N)N)NC(=O)[C@@H](N)CC(=O)O)C(C)C)C(=O)N[C@@H](Cc1c[nH]cn1)C(=O)N1CCC[C@H]1C(=O)O` [native Ang-(1-7), Asp-Arg-Val-Tyr-Ile-His-Pro], the “selectivity for MasR over the AT1 and AT2 receptors” value (Mas receptor (MasR)) is given as 60-100 fold, the “onset, severity, and duration of the TBI-induced cognitive impairment relative to vehicle controls” value [1] is given as “significantly reduced” and the “NO over control levels (relative peak fluorescence intensity)” value [2] is given as “significant elevation”.
